Results taken from PubChem BioAssay.
The list shows a part of the results.

Test: stimulators of nuclear beta-catenin in C2C12, primary screen, imaging, WNT3A-conditioned medium, mouse C2C12, NPC library (AID 1117326); further: reference of the scale not given here
Conditions: at 2 µM, stronger effect = higher value

SMILES: CCC(=O)N(c1ccccc1)C1CCNCC1
- nuclear beta-catenin stimulation: 2.3%

SMILES: CCOC(=O)N1CCC(=O)CC1
- nuclear beta-catenin stimulation: -1.4%
